Data as given in PubChem BioAssay AID720505 (Drosophila RNAi Screening Center, 2013).

Aim: 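Genes needed for store-operated calcium entry in fly cells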 (primary screen)
Cells: Drosophila S2R+ cells
Reagents: long dsRNA against Drosophila genes
Challenge: thapsigargin (2 µM) in calcium-free buffer to empty internal stores, then 2 mM calcium added back
Read-out: 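Fluo-4 signal in 384-well plates read on a FLIPR after thapsigargin (2 µM, calcium-free) store depletion and 2 mM calcium add-back; unnormalised mean endpoint per well; screen run twice, selected wells retested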
Direction: calcium signal and retest calcium signal: higher = more calcium entry after store depletion
Hit rule: 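About 1500 genes called as lowering calcium entry, by varying amounts, judged against per-plate control wells with STIM1 as positive and Rho1 as negative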
Meaning of the calls: active = called as lowering calcium entry; inactive = not called
The deposit covers about 20,000 reagents; below is a random part of those with a known target gene and a result. In the full data, about 2,100 (10%) were called active. 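Raw plate signals without normalisation; calls rest on control-based scores that were not deposited; replicate 2 separates called from uncalled poorly.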 A number with no mark means an inactive call. Reagents against one gene are numbered here. No sequences are given here. Not given: the amount of reagent, the time to read-out.

With CG4995 (GeneID 34390), what does the deposit list?
calcium signal, replicate 1: 98.5; calcium signal, replicate 2: 114

With cn (GeneID 35724), what does the deposit list?
calcium signal, replicate 1: 107; calcium signal, replicate 2: 196

Which result is listed for CG8306 (GeneID 36857)?
calcium signal, replicate 1: 157; calcium signal, replicate 2: 116

Which result is listed for CG12863 (GeneID 36623)?
calcium signal, replicate 1: 145; calcium signal, replicate 2: 178

For NijC (GeneID 41568), how do the results read?
calcium signal, replicate 1: 174; calcium signal, replicate 2: 90

With CG13995 (GeneID 33851) #1, what was measured?
calcium signal, replicate 1: 121; calcium signal, replicate 2: 118; retest calcium signal, replicate 1: 8951; retest calcium signal, replicate 2: 181

How did the screen score CG13995 (GeneID 33851) #2?
calcium signal, replicate 1: 156; calcium signal, replicate 2: 109

With CG13995 (GeneID 33851) #3, what does the deposit list?
calcium signal, replicate 1: 109; calcium signal, replicate 2: 188

For CG17683 (GeneID 3355011), how do the results read?
calcium signal, replicate 1: 158; calcium signal, replicate 2: 93.8

With Or63a (GeneID 38354), how do the results read?
calcium signal, replicate 1: 65.4; calcium signal, replicate 2: 115

With CG9522 (GeneID 32413), what does the deposit list?
calcium signal, replicate 1: 118; calcium signal, replicate 2: 145

What is on record for CG13117 (GeneID 34289)?
calcium signal, replicate 1: 181; calcium signal, replicate 2: 125

For Cyp6a14 (GeneID 35835), how do the results read?
calcium signal, replicate 1: 146; calcium signal, replicate 2: 124

For CG32834 (GeneID 318238), what does the deposit list?
calcium signal, replicate 1: 63.4; calcium signal, replicate 2: 217

Which result is listed for CG7745 (GeneID 36210) #1?
calcium signal, replicate 1: 139; calcium signal, replicate 2: 144

How did the screen score CG7745 (GeneID 36210) #2?
calcium signal, replicate 1: 142; calcium signal, replicate 2: 167

How did the screen score CG8839 (GeneID 36340)?
calcium signal, replicate 1: 198; calcium signal, replicate 2: 183

For CG8854 (GeneID 36324), what was measured?
calcium signal, replicate 1: 148; calcium signal, replicate 2: 145

For kuk (GeneID 42063), what does the deposit list?
calcium signal, replicate 1: 155; calcium signal, replicate 2: 237

Limited to “calcium signal, replicate 1”, for 4 of the entries above:
CG13995 (GeneID 33851) #1 = 121
CG13995 (GeneID 33851) #2 = 156
CG13995 (GeneID 33851) #3 = 109
CG17683 (GeneID 3355011) = 158

The listing continues.
What did the screen give for CG3301 (GeneID 42528)?
calcium signal, replicate 1: 220; calcium signal, replicate 2: 392

For CG12994 (GeneID 50350) #1, what does the deposit list?
calcium signal, replicate 1: 97.2; calcium signal, replicate 2: 93.2

What did the screen give for CG12994 (GeneID 50350) #2?
calcium signal, replicate 1: 72.5 (active); calcium signal, replicate 2: 134

With wry (GeneID 33361) #1, what does the deposit list?
calcium signal, replicate 1: 228; calcium signal, replicate 2: 107

With wry (GeneID 33361) #2, what was measured?
calcium signal, replicate 1: 206; calcium signal, replicate 2: 128

What is on record for wry (GeneID 33361) #3?
calcium signal, replicate 1: 91.9; calcium signal, replicate 2: 161

How did the screen score Pfdn5 (GeneID 42647)?
calcium signal, replicate 1: 243; calcium signal, replicate 2: 231

For Toll-6 (GeneID 39663), how do the results read?
calcium signal, replicate 1: 77.6; calcium signal, replicate 2: 153

With Snx21 (GeneID 33466), how do the results read?
calcium signal, replicate 1: 73.7; calcium signal, replicate 2: 157

For mil (GeneID 43343), what was measured?
calcium signal, replicate 1: 50.3 (active); calcium signal, replicate 2: 97.8

How did the screen score CG17300 (GeneID 39489)?
calcium signal, replicate 1: 85.7; calcium signal, replicate 2: 114

For msd5 (GeneID 38156), how do the results read?
calcium signal, replicate 1: 88.4; calcium signal, replicate 2: 156

With scat (GeneID 47942), how do the results read?
calcium signal, replicate 1: 75.6; calcium signal, replicate 2: 98.2

Which result is listed for SMC2 (GeneID 36653)?
calcium signal, replicate 1: 131; calcium signal, replicate 2: 145

What is on record for angel (GeneID 37748) #1?
calcium signal, replicate 1: 140; calcium signal, replicate 2: 97.9

With angel (GeneID 37748) #2, how do the results read?
calcium signal, replicate 1: 86.3; calcium signal, replicate 2: 75.9
